Laboratory results published in article PMC10556103, “Autoantibody binding and unique enzyme-substrate intermediate conformation of human transglutaminase 3” (Nature Communications, 2023).
Results are given in words; binding and its absence hold for the method and conditions named.

How the values were obtained:
[1] = molecular target: T1, Z-DON-associated TG3 without C1C2 (enzyme-substrate intermediate conformer) (human) (UniProt Q08188); assay: SEC; cathepsin L-cleaved TG3 incubated overnight at 4 °C with Z-DON (120:1) or without; Superdex 200 10/300, 50 mM Tris pH 7.6, 150 mM NaCl, 2 mM CaCl2; both purified
T1 sequence (chain, Cys273 alkylated by Z-DON (Z-DON-Val-Pro-Leu-OMe)): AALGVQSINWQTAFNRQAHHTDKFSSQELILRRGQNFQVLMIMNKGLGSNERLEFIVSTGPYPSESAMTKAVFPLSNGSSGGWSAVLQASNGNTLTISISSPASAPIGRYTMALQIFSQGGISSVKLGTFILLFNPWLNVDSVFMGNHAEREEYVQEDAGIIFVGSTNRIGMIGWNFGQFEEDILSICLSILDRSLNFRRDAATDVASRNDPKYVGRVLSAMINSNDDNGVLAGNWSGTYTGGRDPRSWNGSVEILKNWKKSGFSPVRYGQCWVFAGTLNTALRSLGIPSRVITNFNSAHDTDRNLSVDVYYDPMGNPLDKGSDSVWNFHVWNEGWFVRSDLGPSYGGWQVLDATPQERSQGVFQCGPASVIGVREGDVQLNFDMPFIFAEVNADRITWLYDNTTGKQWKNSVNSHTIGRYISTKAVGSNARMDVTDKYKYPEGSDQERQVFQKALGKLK

[2] = molecular target: T1, Z-DON-associated TG3 without C1C2 (enzyme-substrate intermediate conformer) (human); assay: SEC; dispase-cleaved TG3 incubated overnight at room temperature with Z-DON (25:1) or without; Superdex 200 10/300, 20 mM Tris pH 8, 150 mM NaCl, 8 mM CaCl2, 1 mM EDTA, 1 mM DTT; fractions analysed by SDS-PAGE; both purified
[3] = molecular target: T1, Z-DON-associated TG3 without C1C2 (enzyme-substrate intermediate conformer) (human); assay: crystal structure; TG3 form mixed with Fab DH63-B02 at 1:1.1 molar ratio, complex purified by SEC; crystals in 0.1 M HEPES-MOPS pH 7.1, 16-22% ethylene glycol, 8-11% PEG 8000, 6-10 mM CaCl2, 3-10 mM MgCl2; three Ca2+ bound; both purified

binding [1]: no binding
binding [2]: no binding
binding [3]: no binding
Substance: C1C2 fragment (two C-terminal beta-barrel domains) of cleaved TG3 (from UniProt Q08188) (domain or fragment)
